No constants are given. Whether binding was seen depends on the method and setting.

Here are results for 9 molecules from patent publication US20240174744A1, “METHODS OF TREATMENT USING PROTEIN BINDERS TO IRHOM2 EPITOPES” (SCIRHOM GMBH, priority 2021, published 2024).

The test addresses mouse iR1 wild type (mouse). The test is described as follows: FACS on cells expressing mouse iR1 wild type.

B1: antibody 5 (antibody, V domains shown)
VH: QVTLKESGPGILQPSQTLSLTCSFSGFSLSTFGMGVGWIRQPSGKGLEWLAHIWWDDEKYYNSALKSRLTISKATSKNQAFLKIANVDTADTATYYCARISNYGSNYWYFNVWGTGTTVTVSS
VL: QVVLTQSPALMSASPGEKVTMTCSAGSSVSCMYWYQQKPGSSPRVLIYDTSNLASGVPARFTGSGSGTSYSLTISRMEAEDAASYYCQQWNSYPLTFGAGTKLELK
Regarding B1, the binding entry is “no binding (tested: 3 µg/ml)”.

B2: antibody 44 (antibody, V domains shown)
VH: QVTLKESGPGILQPSQTLSLTCSFSGFSLSTFGMGVGWIRQPSEKGLEWLAHIWWDDDKYYNPALKSRLTISKDTSKNQIFLKITNVDTAETATYYCSRIGNYGSNYWYFDVWGTGTTVTVSS
VL: QIVLTQSPAVMSASPGEKVTMTCTASSSVYYMYWYQQTPGSSPRLLIYDTSNLASGVPVRFSGSGSGTSYSLTISRMEAEDAATYYCQQWNTYPLTFGAGTKLELK
Take B2: the binding entry is “no binding (tested: 3 µg/ml)”.

B3: antibody 42 (antibody, V domains shown)
VH: QVTLKESGPGILQPSQTLSLTCSLSGFSLSTFGRGVGWIRQPSGKGLEWLAHIWWDDEKYYNPALKSRLTISKDTSKNQVFLRIANVDTADTATYYCARIQNYGSNYWYFDVWGTGTTVTVSS
VL: LIVLTQSPAIMSASPGEKVTMTCGATSRISYMFWYQQKPGSSPRVLIYDTSNLASGVPVRFSGSGSGTSYSLTISRVEAEDVATYYCQQWNSYPLTFGAGTKLELK
For the molecule B3, the binding entry was “no binding (tested: 3 µg/ml)”.

B4: antibody 22 (antibody, V domains shown)
VH: QVTLKESGPGILQPSQTLSLTCSFSGFSLSTFGMGVGWIRQPSGKGLEWLAHIWWDDEKYYNSALKSRLTISKATSKNQVFLKIANVDTADTATYYCARISNYGSNYWYFNVWGTGTTVTVSS
VL: QVVLTQSPALMSASPGEKVTMTCSAGSSVSYMYWYQQKPGSSPRVLIYDTSNLASGVPARFTGSGSGTSYSLTISRMEAEDAATYYCQQWNSYPLTFGAGTKLELK
As for B4, the binding result is listed as “no binding (tested: 3 µg/ml)”.

B5: antibody 43 (antibody, V domains shown)
VH: QVALKESGPGILQPSQTLSLTCSFSGFSLSTFGMGVGWIRQSSGKGLEWLANIWWDDDKYYNPALKSRLTISKDASKNQAFLKIANVDTADTATYYCARIGNYGSNYWYFDVWGTGTTVTVSS
VL: QIVLTQSPAIMSASPGERVTMTCSANSRISYMYWYQQKPGSSPRLLIYDTSNLASGVPVRFSGSGSGTSYSLTISRMEAEDAATYNCQQWSSYPLTFGAGTKLELK
With B5, the binding entry was “no binding (tested: 3 µg/ml)”.

B6: antibody 34 (antibody, V domains shown)
VH: QVTLKESGPGILQPSQTLSLTCSFSGFSLSTFSLGVGWIRQSSGKGLEWLAHIWWDDEKYYNPALKSRLTISKDTSKNQVFLKIANVDAADTATYYCARAYYSKSYYALDYWGQGTSVTVSS
VL: DIQMTQSPSSLSASLGERVSLTCRASQEISGYLSWLQQKPDGTIKRLIYAASTLDSGVPKRFSGSRSGSDYSLAISSLESEDFADYYCLQYANFPFTFGSGTKLEIK
In the case of B6, the binding entry is listed as “no binding (tested: 3 µg/ml)”.

B7: antibody 50 (antibody, V domains shown)
VH: QVQLQQSGAELVRPGASVKVSCKASGYAFSNYLIEWVKQRPGQGLEWIGVINPGSGFTKYNEKFKGKATLTADKSSSTAYMQLSSLTSEDSAVYFCARGLYRAMDYWGQGTSVTVSS
VL: DIQMTQSPASQSASLGESVTITCLASQTIGTWLAWYQQKPGKSPQLLIYAAASLADGVPSRFSGGGSGTKFSFKISSLQAEDFVNYYCQQIYSTPYTFGGGTKLEIK
Turning to B7, the binding entry is on record as “no binding (tested: 3 µg/ml)”.

B8: antibody 3 (antibody, V domains shown)
VH: QVTLKESGPGILQPSQTLSLTCSFSGFSLTTFAMGIGWVRQPSGKGLEWLAHIWWDGEKYNNPVLKSRLTISKDTSKNQVFLRIANVDTPDTATYYCARISSIYYIIDNWGQGTSVTVSS
VL: DIVLTQSPATLSVTPGHSVSLSCRASQSISNNLHWYQKKSHESPRLLIKYVSQSISGIPSRFSGSGSGTDFTLSINSVETEDFGMYFCQQSYNWPLTFGAGTKLELK
As to B8, the binding entry is given as “no binding (tested: 3 µg/ml)”.

B9: antibody 16 (antibody, V domains shown)
VH: QVTLKESGPGILQPSQTLSLTCSFSGFSLSTFALGVGWIRQPSGRGLEWLAHIWWDDDKYYNPALKSRLTISKDTSKNHVFLKIANVDTADTATYYCARITTYYYGMDYWGQGTSVTVSS
VL: DIVLSQSPATLSVTPGDSVSLFCRASQSIGNHLHWYQQESHASPRLLIKYASQSISGIPSRFSGSGSGTDFTLSINSVETEDFGMYFCQQSYNWPLTFGAGTKLELK
For B9, the binding result is reported as “no binding (tested: 3 µg/ml)”.
